The values that follow come from paper PMC11792487.

Amino acid sequences for entries named in this document (tags omitted). A change or cut given only in a name is not applied to a line headed by its entry.
UniProt A0AAI7ZEA0: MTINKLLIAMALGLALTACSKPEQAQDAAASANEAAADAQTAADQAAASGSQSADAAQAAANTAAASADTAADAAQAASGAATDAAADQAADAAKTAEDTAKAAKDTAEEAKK

In this assay the target is T1, MBP-TolB (TolB fused with maltose-binding protein) (Xanthomonas citri subsp. citri) (UniProt Q8PHV7).
T1 sequence: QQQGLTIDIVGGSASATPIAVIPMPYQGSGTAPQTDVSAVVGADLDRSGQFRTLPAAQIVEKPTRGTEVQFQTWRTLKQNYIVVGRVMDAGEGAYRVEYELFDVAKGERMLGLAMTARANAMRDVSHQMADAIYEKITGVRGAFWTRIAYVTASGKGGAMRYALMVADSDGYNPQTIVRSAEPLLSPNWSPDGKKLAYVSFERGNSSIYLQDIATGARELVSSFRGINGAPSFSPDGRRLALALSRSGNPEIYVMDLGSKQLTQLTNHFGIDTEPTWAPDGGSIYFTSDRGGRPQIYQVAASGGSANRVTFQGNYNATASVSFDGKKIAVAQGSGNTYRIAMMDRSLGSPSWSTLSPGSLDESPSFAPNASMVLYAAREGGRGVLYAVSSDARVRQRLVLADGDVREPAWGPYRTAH
As to the kind of experiment: pull-down; both purified.

No constants are given. Whether binding was seen depends on the method and setting. Binding calls can cover weak binding; strength is not graded here. Where a sequence is shown, tags or fusion partners need not be part of it.

As to “GST-OMPXan (Xanthomonas-specific outer membrane protein XAC1347 fused with GST) (from UniProt A0AAI7ZEA0)”, the binding entry was “binds”.
